Data taken from ChEMBL document CHEMBL3988442, “University of Dundee, Small-Polar-MMV Screening Library” (2021).

Sequences of proteins named here, by UniProt entry; tags and fusion partners are left off. Residues count along the entry.
UniProt Q8IDJ8, 1-583: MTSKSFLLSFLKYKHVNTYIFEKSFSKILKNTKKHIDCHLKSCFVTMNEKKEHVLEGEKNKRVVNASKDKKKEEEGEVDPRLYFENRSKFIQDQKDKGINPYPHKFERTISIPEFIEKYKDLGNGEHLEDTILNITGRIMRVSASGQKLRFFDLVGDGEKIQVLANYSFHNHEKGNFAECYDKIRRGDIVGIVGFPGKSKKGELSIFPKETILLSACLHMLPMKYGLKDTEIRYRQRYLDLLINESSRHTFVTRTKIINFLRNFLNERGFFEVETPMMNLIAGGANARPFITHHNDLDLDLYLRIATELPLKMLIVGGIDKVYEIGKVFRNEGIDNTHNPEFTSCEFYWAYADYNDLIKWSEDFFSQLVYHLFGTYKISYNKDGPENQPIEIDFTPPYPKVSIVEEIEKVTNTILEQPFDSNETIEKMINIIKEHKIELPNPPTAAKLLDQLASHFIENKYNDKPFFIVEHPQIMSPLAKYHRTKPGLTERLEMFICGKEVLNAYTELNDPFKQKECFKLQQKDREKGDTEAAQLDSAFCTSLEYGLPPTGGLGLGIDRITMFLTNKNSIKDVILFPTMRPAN

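Enzyme assay of the cytosolic lysyl-tRNA synthetase in 384-well plates, read by luminescence. Target: Lysine-tRNA ligase, Plasmodium falciparum 3D7 (UniProt Q8IDJ8). Compounds at 30 µM. Higher reads as stronger inhibition, judged from the few compounds that gave an IC50. Size under these conditions: about 69,000 compounds, about 49 of them at 50% or above in at least one test.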

The filed quantity is “Percent Effect” (%). The controls that fix the scale are not given in the record; negative values are as filed. This is an unselected part of the compounds tested.

* Cc1cc(C)n(CCN2CCC(N(C)Cc3nnc(C)n3C)C2)n1 (centres unmarked) : -1.813%
* COCCN(Cc1nccs1)C(=O)c1c(C)cc(C)[nH]c1=O : 1.576%
* CC(C)c1cn(CC(=O)NC2CC(=O)N(CCc3ccccc3)C2)nn1 (centres unmarked) : -1.353%
* CC(C)N(C)Cc1cncc2c1CCN(Cc1cccs1)C2 : 4.019%
* CC(C)N1CCCC(CN(C)c2ccc(Cn3ccnc3)cn2)C1 (centres unmarked) : 3.001%
* Cn1c(-c2cc3n(n2)CCCN(CC(=O)O)C3)nc2ccccc21 : -3.324%
* CC(c1nc(C(C)(C)C)no1)N1CCN(CC(=O)N2CCOCC2)CC1 (centres unmarked) : 5.212%
* O=C(O)[C@]12CCCN(Cc3ccco3)C[C@H]1CN(c1ncccn1)C2 : 2.981%
* Cc1ccsc1C(=O)NCC1COCc2c(C)nnn2C1 (centres unmarked) : 3.32%
* O=C(Cc1ccc(F)cc1)N1C[C@H]2CCN[C@H]2C1 : 2.414%
* COC(=O)C(NC(=O)c1ccc(C)cc1C)c1cccnc1 (centres unmarked) : 6.563%
* Cc1cnn(C2CN(Cc3nc(C(C)(C)C)no3)C2)c1 : -2.608%
* CCOC1CCC2(CCN(C(=O)c3csnn3)CC2)c2ccccc21 (centres unmarked) : -0.9356%
* Cc1nccn1-c1cc(CNC(=O)CCNC(=O)C2CCCC2)ccn1 : 3.447%
* Cc1noc(C)c1C(=O)N(C)C(C)c1cccnc1 (centres unmarked) : 5.208%
* O=C(c1cc(F)cc(F)c1)N1CCC(O)(C(F)(F)F)CC1 : 0.1877%
* OCC(O)CSCc1nnc(-c2cccc(F)c2)o1 (centres unmarked) : -0.2733%
* CCCS(=O)(=O)N1CCC2(CN(c3cnn(C)c3)C(=O)CN2C)C1 (centres unmarked) : 0.7587%
* CCc1ccsc1C(=O)NC(Cc1ccccc1)C(N)=O (centres unmarked) : 14.31%
* O=C(NCCc1nnc2n1CCC2)NCC1(c2cccc(F)c2)CC1 : 0.4759%
* CC(c1nccs1)N(C)C(=O)c1cc(CN(C)Cc2ccccc2)on1 (centres unmarked) : 8.463%
* Cn1nc(CNC(=O)c2cccc(C(F)(F)F)c2)c2c1CCOC2 : 0.5487%
* CN(C)C(=O)Cc1ccccc1NCc1cccc(F)c1F : -0.2424%
* CCn1ccc(NS(=O)(=O)c2cccc(COC)c2)n1 : 7.334%
* Cc1ccc(N(CCC#N)C(=O)CN2CCCC2c2ccsc2)cc1C (centres unmarked) : 0.2943%
* Cn1nc(C(=O)N2CCCC2)c(F)c1NC(=O)Cc1ccccc1 : 3.959%
* CC(C)NC(=O)CS(=O)(=O)Cc1cc(Cl)c2c(c1)OCCO2 : 9.896%
* O=S(=O)(C1CC1)N1CCC2(COCc3cnc(N4CCOCC4)nc32)C1 (centres unmarked) : -3.44%
* CCOCc1nc2c(c(N3CCN4CCCC4C3)n1)CCNCC2 (centres unmarked) : 3.45%
* CCCN1CCCn2nc(CNS(=O)(=O)c3ccc(F)cc3)cc2C1 : 9.478%
* Cc1noc(C)c1CN(C)C(=O)c1nc(N2CCCC2)ncc1Cl : 3.565%
* Cc1ccc(CN2CC[C@H]3C[C@H](C(=O)N(C)C)O[C@H]3C2)cc1 : 4.327%
* Cn1cnc(S(=O)(=O)N2CCOCC2)c1Cl : 5.171%
* O=C(c1cc(=O)n(-c2ccccc2)[nH]1)N1CCOC(C(F)(F)F)C1 (centres unmarked) : -0.2002%
* CCC(=O)N1CCC(c2nnc(Cn3cccn3)n2C2CC2)CC1 : -0.1055%
* COc1ccc(OCCc2sc(C3(O)CCCNCC3)nc2C)cc1 (centres unmarked) : -0.2985%
* NC(=O)C1CCN(Cc2ccc(S(=O)(=O)N3CCCC3)o2)CC1 : 1.237%
* COc1cccc(-n2c(SCC(=O)O)nnc2-c2cn[nH]c2)c1 : 4.514%
* CN1CC(=O)N(c2ccccc2)CC12CCN(CC1CC1)C2 (centres unmarked) : -3.515%
* Cc1cc(C)c2ncn(CCC(C)O)c(=O)c2c1 (centres unmarked) : 3.752%
* Cc1ccnc(OC[C@@]23CCO[C@@H]2CCN(C2CCC2)C3)n1 : 1.597%
* O=C(c1cnccn1)N1CCN(Cc2csc(-c3ccccc3)n2)CC1 : -2.516%
* COCCn1c(=O)n(Cc2ccc(Cl)s2)c2cc(C(=O)O)ccc21 : 3.595%
* COc1ccc(N2CCN(CC(O)c3cc(C)ccc3C)CC2)cc1 (centres unmarked) : 3.345%

The first 6 entries again:

compound,Percent Effect
Cc1cc(C)n(CCN2CCC(N(C)Cc3nnc(C)n3C)C2)n1 (centres unmarked),-1.813
COCCN(Cc1nccs1)C(=O)c1c(C)cc(C)[nH]c1=O,1.576
CC(C)c1cn(CC(=O)NC2CC(=O)N(CCc3ccccc3)C2)nn1 (centres unmarked),-1.353
CC(C)N(C)Cc1cncc2c1CCN(Cc1cccs1)C2,4.019
CC(C)N1CCCC(CN(C)c2ccc(Cn3ccnc3)cn2)C1 (centres unmarked),3.001
Cn1c(-c2cc3n(n2)CCCN(CC(=O)O)C3)nc2ccccc21,-3.324